Source: PMC6888875
These are yes or no findings as the source states them, for the method shown. Binding seen in cells or lysates may run through a third protein. Some binding calls cover weakened binding; strength is not graded here. Tags and fused reporters may be left off the sequences shown.

Chains of the proteins cited; added tags and fusions are not shown. Residues count along the entry.
UniProt Q9BXM7, residues 78-581: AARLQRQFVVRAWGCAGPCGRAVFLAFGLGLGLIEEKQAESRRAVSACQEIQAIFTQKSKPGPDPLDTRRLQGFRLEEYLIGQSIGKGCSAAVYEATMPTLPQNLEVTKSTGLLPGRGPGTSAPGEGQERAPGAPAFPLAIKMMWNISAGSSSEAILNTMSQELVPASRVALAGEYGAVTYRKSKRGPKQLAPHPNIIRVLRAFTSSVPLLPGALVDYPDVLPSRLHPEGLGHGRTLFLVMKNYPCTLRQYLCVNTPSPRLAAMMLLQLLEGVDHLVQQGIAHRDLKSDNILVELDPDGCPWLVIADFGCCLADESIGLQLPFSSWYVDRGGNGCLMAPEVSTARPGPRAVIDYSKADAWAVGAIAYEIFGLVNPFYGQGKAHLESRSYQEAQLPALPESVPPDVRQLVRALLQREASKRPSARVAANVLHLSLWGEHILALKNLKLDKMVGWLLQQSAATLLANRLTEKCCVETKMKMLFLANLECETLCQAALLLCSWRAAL

Target: PINK1-V5 (UniProt Q9BXM7)
Assay: co-IP; co-transfection of TAMM41-GFP and PINK1-V5; cells lysed 40 min on ice in lysis buffer with protease inhibitors (20 mM Tris pH 7.4, 137 mM NaCl, 2 mM EDTA, 10% glycerol, 1% NP-40); lysates incubated with the indicated antibodies and protein A/G-agarose beads overnight at 4 °C; western blot

- binding: binds
B1: TAMM41-GFP (protein, UniProt Q96BW9 1-452)
chain: MALQTLQSSWVTFRKILSHFPEELSLAFVYGSGVYRQAGPSSDQKNAMLDFVFTVDDPVAWHSKNLKKNWSHYSFLKVLGPKIITSIQNNYGAGVYYNSLIMCNGRLIKYGVISTNVLIEDLLNWNNLYIAGRLQKPVKIISVNEDVTLRSALDRNLKSAVTAAFLMLPESFSEEDLFIEIAGLSYSGDFRMVVGEDKTKVLNIVKPNIAHFRELYGSILQENPQVVYKSQQGWLEIDKSPEGQFTQLMTLPKTLQQQINHIMDPPGKNRDVEETLFQVAHDPDCGDVVRLGLSAIVRPSSIRQSTKGIFTAGKSFGNPCVTYLLTEWLPHSWLQCKALYLLGACEMLSFDGHKLGYCSKVQTGITAAEPGGRTMSDHWQCCWKLYCPSEFSETLPVCRVFPSYCFIYQSYRCIGLQKQQHLCSPSSSPSLRQLLPSVLVGYFCCYCHFSKW
